Data reported in US9387192B2, “Combination of rocaglamide and apoptosis inducing substances for the treatment of cancer” (DKFZ DEUTCHERS KREBSFORSCHUNGSZENTRUM, priority 2008, dated 2016).
Some entries share one result that the patent states for a list of compounds.

Tested on: human leukemic Jurkat T cells
Experiment: Apoptosis (FSC/SSC, DNA fragmentation) in Jurkat T cells
Type: cell-based
Conditions: Roc-A alone
Experimental: The mouse lymphoma cell line RMA (van Hall et al., 2000), the human leukemic T cell lines DND-41 (contains a p53 mutation), Jurkat J16, Jurkat A3 and Jurkat A3 deficient in FADD (J-FADDdef) (purchased from American Type Culture Collection, ATCC, Manassas, USA) were cultured in RPMI 1640 medium (GIBCO laboratories, Grand Island, N.Y.) supplemented with 10% FCS, 50 μg/ml gentamicin (GIBCO), 6 mM HEPES (GIBCO, 1 M solution), and 2 mM L-glutamine (GIBCO, 200 mM solution) at 37° C. and 5% CO2. T cells were stimulated with either plate-bound αCD3 (OKT3 10 μg/ml) or PMA (5 ng/ml) plus ionomycin (0.5 μM).
Cells were plated in triplicates and treated for the indicated periods of time at 37° C. with different reagents as described in the figure legends. Rocaglamide derivatives used in this study were isolated from various Aglaia species to at least 98% purity determined by HPLC as reported previously (Schneider et al., 2000). The structures of the compounds were unequivocally elucidated based on their NMR and mass spectra as described before (Schneider et al., 2000). Apoptotic cell death was examined by two parameters: FSC/SSC index of apoptotic-like change in cell size and granularity by FACScan and by analysis of DNA fragmentation (Vermes et al., 2000).

Roc-A
apoptotic cell death: 5 to 10%
